The values are deposited in ChEMBL (CHEMBL3988442, “University of Dundee, Small-Polar-MMV Screening Library” (2021)).

The chains behind the UniProt entries cited, without tags or fusion partners. Residues count along the entry.
UniProt P9WNZ1, whole entry: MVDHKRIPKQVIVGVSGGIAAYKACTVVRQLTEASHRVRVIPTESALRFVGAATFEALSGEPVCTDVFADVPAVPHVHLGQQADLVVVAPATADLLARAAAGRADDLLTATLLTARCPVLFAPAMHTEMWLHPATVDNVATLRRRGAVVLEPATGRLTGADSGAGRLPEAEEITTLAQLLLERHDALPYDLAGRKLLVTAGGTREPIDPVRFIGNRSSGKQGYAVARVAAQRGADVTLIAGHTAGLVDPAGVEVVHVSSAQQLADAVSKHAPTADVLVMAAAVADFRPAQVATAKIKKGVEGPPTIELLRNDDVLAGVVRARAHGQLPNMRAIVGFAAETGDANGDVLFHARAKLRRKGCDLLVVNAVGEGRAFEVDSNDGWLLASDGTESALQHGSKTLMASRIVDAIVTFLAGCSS
UniProt I6X8D2, whole entry: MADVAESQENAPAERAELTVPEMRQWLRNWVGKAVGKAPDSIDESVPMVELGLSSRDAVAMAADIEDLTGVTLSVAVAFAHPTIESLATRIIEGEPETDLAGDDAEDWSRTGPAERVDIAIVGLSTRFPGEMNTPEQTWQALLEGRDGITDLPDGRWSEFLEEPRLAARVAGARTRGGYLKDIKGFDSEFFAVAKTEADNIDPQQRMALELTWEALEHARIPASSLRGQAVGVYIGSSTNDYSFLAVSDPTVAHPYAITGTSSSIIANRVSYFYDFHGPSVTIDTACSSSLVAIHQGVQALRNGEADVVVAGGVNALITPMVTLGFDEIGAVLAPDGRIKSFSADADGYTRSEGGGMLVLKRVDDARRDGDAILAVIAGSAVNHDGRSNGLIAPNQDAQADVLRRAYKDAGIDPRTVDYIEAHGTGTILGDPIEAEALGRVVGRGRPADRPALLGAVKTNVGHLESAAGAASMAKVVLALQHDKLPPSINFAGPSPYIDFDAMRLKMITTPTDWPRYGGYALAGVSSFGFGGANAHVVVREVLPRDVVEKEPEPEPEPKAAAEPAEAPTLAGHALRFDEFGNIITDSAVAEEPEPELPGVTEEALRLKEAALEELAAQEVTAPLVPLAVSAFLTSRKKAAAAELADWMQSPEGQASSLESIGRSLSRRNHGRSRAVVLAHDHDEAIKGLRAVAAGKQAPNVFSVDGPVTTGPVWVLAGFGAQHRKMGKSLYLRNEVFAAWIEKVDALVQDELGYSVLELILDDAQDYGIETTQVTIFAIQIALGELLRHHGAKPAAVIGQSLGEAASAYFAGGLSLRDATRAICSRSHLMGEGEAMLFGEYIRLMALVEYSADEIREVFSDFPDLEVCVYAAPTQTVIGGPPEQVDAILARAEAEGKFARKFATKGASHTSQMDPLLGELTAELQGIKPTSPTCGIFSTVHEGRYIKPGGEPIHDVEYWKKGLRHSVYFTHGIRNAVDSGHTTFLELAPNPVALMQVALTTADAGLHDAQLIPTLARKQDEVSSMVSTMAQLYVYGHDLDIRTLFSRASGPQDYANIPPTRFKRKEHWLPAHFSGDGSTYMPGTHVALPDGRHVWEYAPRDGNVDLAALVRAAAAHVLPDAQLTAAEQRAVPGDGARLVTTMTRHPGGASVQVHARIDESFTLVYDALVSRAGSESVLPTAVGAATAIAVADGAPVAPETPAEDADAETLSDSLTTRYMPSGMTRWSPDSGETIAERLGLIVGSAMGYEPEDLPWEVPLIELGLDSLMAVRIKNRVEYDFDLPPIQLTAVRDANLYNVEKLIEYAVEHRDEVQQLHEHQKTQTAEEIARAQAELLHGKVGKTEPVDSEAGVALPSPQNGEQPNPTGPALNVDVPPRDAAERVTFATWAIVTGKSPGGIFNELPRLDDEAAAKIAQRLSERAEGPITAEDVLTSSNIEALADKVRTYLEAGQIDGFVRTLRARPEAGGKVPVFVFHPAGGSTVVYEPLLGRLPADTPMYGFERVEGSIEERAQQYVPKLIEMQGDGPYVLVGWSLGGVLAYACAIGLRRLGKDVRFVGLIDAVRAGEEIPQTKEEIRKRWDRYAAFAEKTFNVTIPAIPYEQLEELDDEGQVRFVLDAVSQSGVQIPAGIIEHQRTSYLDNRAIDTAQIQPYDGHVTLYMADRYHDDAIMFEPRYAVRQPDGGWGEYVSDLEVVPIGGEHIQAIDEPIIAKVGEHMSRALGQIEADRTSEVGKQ
UniProt P9WFT3, whole entry: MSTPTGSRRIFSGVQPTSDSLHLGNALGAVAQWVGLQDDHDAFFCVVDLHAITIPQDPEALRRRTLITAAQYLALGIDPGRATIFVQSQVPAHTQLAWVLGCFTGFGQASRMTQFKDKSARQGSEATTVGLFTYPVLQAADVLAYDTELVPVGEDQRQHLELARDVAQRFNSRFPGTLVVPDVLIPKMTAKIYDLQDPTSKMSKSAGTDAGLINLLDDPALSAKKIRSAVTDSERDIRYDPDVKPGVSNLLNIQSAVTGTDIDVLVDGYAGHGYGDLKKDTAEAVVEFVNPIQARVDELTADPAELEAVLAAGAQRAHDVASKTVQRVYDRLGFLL
UniProt A4I591, 1-473: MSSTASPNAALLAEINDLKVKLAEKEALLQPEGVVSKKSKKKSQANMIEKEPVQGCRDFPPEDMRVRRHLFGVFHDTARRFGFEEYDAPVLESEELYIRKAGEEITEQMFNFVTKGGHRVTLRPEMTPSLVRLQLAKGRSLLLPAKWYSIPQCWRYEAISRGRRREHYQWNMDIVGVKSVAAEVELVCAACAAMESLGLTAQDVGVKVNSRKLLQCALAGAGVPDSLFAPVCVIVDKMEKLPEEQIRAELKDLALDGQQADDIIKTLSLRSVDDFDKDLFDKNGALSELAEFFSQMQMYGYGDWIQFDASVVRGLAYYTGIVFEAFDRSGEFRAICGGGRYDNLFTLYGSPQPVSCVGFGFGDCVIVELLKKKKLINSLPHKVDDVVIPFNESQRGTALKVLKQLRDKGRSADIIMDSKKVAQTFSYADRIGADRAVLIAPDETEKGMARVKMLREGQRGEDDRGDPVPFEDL

Results are given as percent effect.
How 0% and 100% were set is not recorded. Most values in the screen are low, and negative values occur.
Compounds were drawn at random from those tested, without regard to their results.

CoaBC: 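Coenzyme A biosynthesis protein CoaBC, Mycobacterium tuberculosis (UniProt P9WNZ1). Enzyme assay of CoaBC with a phosphate dye (Biomol Green) read at 650 nm. Tested at 30 µM. Higher reads as stronger inhibition, judged from the few compounds that gave an IC50. Most strong results did not repeat in a second test. Size under these conditions: about 67,000 compounds, about 40 of them at 50% or above in at least one test.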
Pks13 thioesterase: 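Enzyme assay of the thioesterase domain of polyketide synthase 13; the read-out is not stated. Target: Polyketide synthase Pks13, Mycobacterium tuberculosis (UniProt I6X8D2). Tested at 30 µM. Higher reads as stronger inhibition (inferred from which compounds were picked for retests). About 67,000 compounds were tested under these conditions; 0.46% (about 300) showed 50% or more at least once.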
MtTrpRS: 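Tryptophan-tRNA ligase, Mycobacterium tuberculosis (UniProt P9WFT3). Enzyme assay of tryptophanyl-tRNA synthetase; the read-out is not stated. Concentration: 10 µM. Direction is not recorded; retested compounds ran higher, which suggests that high means inhibition. Of about 65,000 compounds tested this way, about 64 (0.098%) reached 50% or more in at least one test.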
LiHisRS: 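Enzyme assay of histidyl-tRNA synthetase; the read-out is not stated. Target: Histidine-tRNA ligase, Leishmania infantum (UniProt A4I591). Tested at 30 µM. The record gives no direction; compounds that gave an IC50 in retests scored well above the rest, so higher reads as stronger inhibition. The assay is labelled LdHisRS but filed under L. infantum. Of about 69,000 compounds tested this way, about 410 (0.6%) reached 50% or more in at least one test.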

{"structure": "O=S(=O)(c1cccs1)N1CC[C@@H](O)[C@@H]1Cc1ccncc1", "CoaBC": -2.792, "Pks13 thioesterase": -47.59, "MtTrpRS": 1.728, "LiHisRS": -8.824}
{"structure": "CCS(=O)(=O)c1ccccc1C(=O)N1CCCC(n2cccn2)C1", "stereo": "stereo unspecified", "CoaBC": 14.55, "Pks13 thioesterase": -37.37, "MtTrpRS": 6.879, "LiHisRS": 16.07}
{"structure": "Cc1cccc(-c2noc(CNC(C)Cn3cc(C)cn3)n2)c1", "stereo": "stereo unspecified", "CoaBC": 1.531, "Pks13 thioesterase": 3.967, "MtTrpRS": 4.074, "LiHisRS": 18.52}
{"structure": "COc1ccc(F)cc1Cn1nc(C(N)=O)ccc1=O", "CoaBC": 2.39, "Pks13 thioesterase": 0.467, "MtTrpRS": 11.17, "LiHisRS": 0}
{"structure": "CC(C)NC(=O)N1CCC2(CCCO2)C1", "stereo": "stereo unspecified", "CoaBC": -2.664, "Pks13 thioesterase": 10.88, "MtTrpRS": 9.698, "LiHisRS": 10}
{"structure": "CCc1cnc(C)nc1NCC(O)CN1CCCCCC1", "stereo": "stereo unspecified", "CoaBC": -18.11, "Pks13 thioesterase": -27.99, "MtTrpRS": 0.08032, "LiHisRS": 28.77}
{"structure": "CS(=O)(=O)NCCN1CCSCC1c1ccc(Cl)cc1", "stereo": "stereo unspecified", "CoaBC": 2.088, "Pks13 thioesterase": -5.129, "MtTrpRS": 6.158, "LiHisRS": 12.4}
{"structure": "Cc1cc(C(=O)CN(Cc2cccnc2)CC2CCCO2)c(C)[nH]1", "stereo": "stereo unspecified", "CoaBC": 4.177, "Pks13 thioesterase": 0.3848, "MtTrpRS": -0.2719, "LiHisRS": 15.66}
{"structure": "COc1c[nH]c(C(=O)N2CCN(c3cccc(Cl)c3)CC2)cc1=O", "CoaBC": -3.302, "Pks13 thioesterase": -14.13, "MtTrpRS": 0.7698, "LiHisRS": 18.68}
{"structure": "Cc1nc(CN2CCCn3c(nc(Cn4ccnc4)cc3=O)C2)cs1", "CoaBC": 2.557, "Pks13 thioesterase": -40.07, "MtTrpRS": -0.804, "LiHisRS": 5.825}
{"structure": "CC1N(CC2CC2)C(=O)COC12CCN(C(=O)c1ccno1)CC2", "stereo": "stereo unspecified", "Pks13 thioesterase": -41.64, "MtTrpRS": 0.4845, "LiHisRS": 13.68}
{"structure": "Cc1ncccc1Oc1ncnc(N2CCCC(O)(CO)CC2)c1C", "stereo": "stereo unspecified", "CoaBC": 3.329, "Pks13 thioesterase": -13.5, "MtTrpRS": 0.6006, "LiHisRS": 14.52}
{"structure": "CCn1nc2c(cc1=O)CN(Cc1nc(-c3cccs3)no1)CC2", "CoaBC": 3.133, "Pks13 thioesterase": 0.8297, "MtTrpRS": -7.211, "LiHisRS": 25.86}
{"structure": "CC1=N[C@@]2(CC[C@@H]3CN(Cc4cccc(Cl)c4)C[C@@H]32)C(=O)N1CC1CC1", "CoaBC": 8, "Pks13 thioesterase": -10.76, "MtTrpRS": -2.156, "LiHisRS": 22.94}
{"structure": "Cc1occc1C(=O)NCC(=O)N(C)CCCOc1ccccc1", "CoaBC": 4.024, "Pks13 thioesterase": -33.33, "MtTrpRS": 2.252, "LiHisRS": 8.791}
{"structure": "COC(C)(C)C(=O)NCC1CCN(Cc2cc3ccccc3[nH]2)C1", "stereo": "stereo unspecified", "CoaBC": 4.58, "Pks13 thioesterase": -27.82, "MtTrpRS": 0.719, "LiHisRS": 23.08}
{"structure": "CS(=O)(=O)N1CCc2ccc(=O)n(CCN3CCCC3)c2CC1", "CoaBC": 0.7317, "Pks13 thioesterase": 12.22, "LiHisRS": 13.21}
{"structure": "CS(=O)(=O)c1ccc(CNC(=O)NCC2CCOC2)cc1", "stereo": "stereo unspecified", "CoaBC": 13.17, "Pks13 thioesterase": -31.46, "MtTrpRS": 0.5696, "LiHisRS": 11.57}
{"structure": "O=C(NC1CC1)N1CCC2(CC1)C(=O)NCCN2Cc1ccccc1", "CoaBC": 5.344, "Pks13 thioesterase": -15.59, "MtTrpRS": -5.093, "LiHisRS": 5.825}
{"structure": "Cn1c(CC2CCS(=O)(=O)C2)nnc1SCCOc1ccccc1F", "stereo": "stereo unspecified", "CoaBC": -3.084, "Pks13 thioesterase": -10.16, "MtTrpRS": 0.3353, "LiHisRS": 5.66}
{"structure": "Cn1cc(CN2CCc3c(nnn3C)C2COCc2ccccc2)cn1", "stereo": "stereo unspecified", "CoaBC": 4.575, "Pks13 thioesterase": -0.44, "MtTrpRS": 0.3687, "LiHisRS": 7.018}
{"structure": "CN(C)c1ncc2c(n1)CN(C1CC(C)(C)NC(C)(C)C1)C2=O", "CoaBC": 0.2309, "Pks13 thioesterase": -8.185, "MtTrpRS": -0.2591, "LiHisRS": 12.07}
{"structure": "CNc1cc(C)nc(C2COCCN2CCOc2ccc(F)cc2)n1", "stereo": "stereo unspecified", "CoaBC": 4.731, "Pks13 thioesterase": 7.239, "MtTrpRS": -7.878, "LiHisRS": 20.29}
{"structure": "CCc1noc(CN(Cc2ccc3c(c2)OCO3)C2CCCC2)n1", "CoaBC": -12.06, "Pks13 thioesterase": 8.4, "MtTrpRS": -2.941, "LiHisRS": 5.357}
{"structure": "CS(=O)(=O)c1ccc(O[C@H]2COCCN(Cc3ccncc3)C2)cc1", "CoaBC": 7.419, "Pks13 thioesterase": -43.92, "MtTrpRS": -5.483, "LiHisRS": 25}
{"structure": "COc1ccccc1Oc1ncccc1CNC(=O)[C@@H](N)CCO", "CoaBC": 2.564, "Pks13 thioesterase": -29.44, "MtTrpRS": 3.232, "LiHisRS": 15.15}
{"structure": "CCN(Cc1nonc1C)C(=O)c1cnccn1", "CoaBC": 6.925, "Pks13 thioesterase": -14.38, "MtTrpRS": -1.09, "LiHisRS": 17.65}
{"structure": "Cc1n[nH]c(C2CN(C(=O)c3cc4c(s3)CCCC4)CCO2)n1", "stereo": "stereo unspecified", "CoaBC": 4.724, "Pks13 thioesterase": -1.395, "MtTrpRS": -4.928, "LiHisRS": 6.78}
{"structure": "CC(C)(C)c1c[nH]c([C@@H]2COCCN2C2CCC2)n1", "CoaBC": 13.02, "Pks13 thioesterase": -36.13, "MtTrpRS": -2.049, "LiHisRS": 1.351}
{"structure": "CCn1c(C2CCCN(Cc3cccc4cnccc34)C2)nn(C)c1=O", "stereo": "stereo unspecified", "CoaBC": 3.004, "Pks13 thioesterase": -12.84, "MtTrpRS": -2.551, "LiHisRS": 9.836}
{"structure": "CS(=O)(=O)N1C[C@@H]2CC[C@H](C1)N(C(=O)Cn1ccc3ccccc31)C2", "CoaBC": -1.512, "Pks13 thioesterase": -9.806, "MtTrpRS": 1.871, "LiHisRS": 11.57}
{"structure": "O=C(N[C@H]1CN(c2ccncc2)C[C@@H]1C1CC1)C1CCOCC1", "CoaBC": 15, "Pks13 thioesterase": -4.686, "MtTrpRS": -2.825, "LiHisRS": 24.66}
{"structure": "O=C(CN1CCCC1)Nc1c2c(cc3c1CCC3)CCC2", "CoaBC": 2.908, "Pks13 thioesterase": -6.579, "MtTrpRS": 2.039, "LiHisRS": 12.64}

Some entries from above, unchanged:

structure	CoaBC	Pks13 thioesterase	MtTrpRS	LiHisRS
Cn1c(CC2CCS(=O)(=O)C2)nnc1SCCOc1ccccc1F (stereo unspecified)	-3.084%	-10.16%	0.3353%	5.66%
CS(=O)(=O)N1C[C@@H]2CC[C@H](C1)N(C(=O)Cn1ccc3ccccc31)C2	-1.512%	-9.806%	1.871%	11.57%